Binding data for 4 molecules are collected here from PMC5147770.

B1: cap binding protein 20 (CBP20) (protein, UniProt Q9XFD1 1-257)
chain: MASLFKEQAKLSAYRDRRFSGTQEEFDEALRASTTVYIGNVSFYTTEEQLYELFSRAGEIKKIIMGLDKNTKTPCGFCFVLFYSREDTEDAVKYISGTILDDRPIRVDFDWGFQEGRQWGRGRSGGQVRDEYRTDYDPARGGYGKLVQKELEAQRQLVDYGTGSLGAYPQAAPTNYGNGRRGGGNYGQGGQNRHGRGDYHRKRQRDDDRYGRDNSRRNTDHESRRDTDSDMRPEKNPRFRESGDSDDDGEDDRKRRS
B2: CBP20^S245A (constitutive de-phosphorylation mimic form of CBP20) (protein, UniProt Q9XFD1 1-257)
chain: MASLFKEQAKLSAYRDRRFSGTQEEFDEALRASTTVYIGNVSFYTTEEQLYELFSRAGEIKKIIMGLDKNTKTPCGFCFVLFYSREDTEDAVKYISGTILDDRPIRVDFDWGFQEGRQWGRGRSGGQVRDEYRTDYDPARGGYGKLVQKELEAQRQLVDYGTGSLGAYPQAAPTNYGNGRRGGGNYGQGGQNRHGRGDYHRKRQRDDDRYGRDNSRRNTDHESRRDTDSDMRPEKNPRFRESGDADDDGEDDRKRRS
B3: CBP20^S245E (constitutive phosphorylation mimic form of CBP20) (protein, UniProt Q9XFD1 1-257)
chain: MASLFKEQAKLSAYRDRRFSGTQEEFDEALRASTTVYIGNVSFYTTEEQLYELFSRAGEIKKIIMGLDKNTKTPCGFCFVLFYSREDTEDAVKYISGTILDDRPIRVDFDWGFQEGRQWGRGRSGGQVRDEYRTDYDPARGGYGKLVQKELEAQRQLVDYGTGSLGAYPQAAPTNYGNGRRGGGNYGQGGQNRHGRGDYHRKRQRDDDRYGRDNSRRNTDHESRRDTDSDMRPEKNPRFRESGDEDDDGEDDRKRRS
B4: CBP20^S245D (constitutive phosphorylation mimic form of CBP20) (protein, UniProt Q9XFD1 1-257)
chain: MASLFKEQAKLSAYRDRRFSGTQEEFDEALRASTTVYIGNVSFYTTEEQLYELFSRAGEIKKIIMGLDKNTKTPCGFCFVLFYSREDTEDAVKYISGTILDDRPIRVDFDWGFQEGRQWGRGRSGGQVRDEYRTDYDPARGGYGKLVQKELEAQRQLVDYGTGSLGAYPQAAPTNYGNGRRGGGNYGQGGQNRHGRGDYHRKRQRDDDRYGRDNSRRNTDHESRRDTDSDMRPEKNPRFRESGDDDDDGEDDRKRRS

These are yes or no findings as the source states them, for the method shown. Some entries that bind do so weakly or less than the wild type.

This assay concerns the target T1, CBP80 (cap-binding protein 80, subunit of the cap-binding complex) (Arabidopsis thaliana) (UniProt Q9SIU2).
T1 sequence: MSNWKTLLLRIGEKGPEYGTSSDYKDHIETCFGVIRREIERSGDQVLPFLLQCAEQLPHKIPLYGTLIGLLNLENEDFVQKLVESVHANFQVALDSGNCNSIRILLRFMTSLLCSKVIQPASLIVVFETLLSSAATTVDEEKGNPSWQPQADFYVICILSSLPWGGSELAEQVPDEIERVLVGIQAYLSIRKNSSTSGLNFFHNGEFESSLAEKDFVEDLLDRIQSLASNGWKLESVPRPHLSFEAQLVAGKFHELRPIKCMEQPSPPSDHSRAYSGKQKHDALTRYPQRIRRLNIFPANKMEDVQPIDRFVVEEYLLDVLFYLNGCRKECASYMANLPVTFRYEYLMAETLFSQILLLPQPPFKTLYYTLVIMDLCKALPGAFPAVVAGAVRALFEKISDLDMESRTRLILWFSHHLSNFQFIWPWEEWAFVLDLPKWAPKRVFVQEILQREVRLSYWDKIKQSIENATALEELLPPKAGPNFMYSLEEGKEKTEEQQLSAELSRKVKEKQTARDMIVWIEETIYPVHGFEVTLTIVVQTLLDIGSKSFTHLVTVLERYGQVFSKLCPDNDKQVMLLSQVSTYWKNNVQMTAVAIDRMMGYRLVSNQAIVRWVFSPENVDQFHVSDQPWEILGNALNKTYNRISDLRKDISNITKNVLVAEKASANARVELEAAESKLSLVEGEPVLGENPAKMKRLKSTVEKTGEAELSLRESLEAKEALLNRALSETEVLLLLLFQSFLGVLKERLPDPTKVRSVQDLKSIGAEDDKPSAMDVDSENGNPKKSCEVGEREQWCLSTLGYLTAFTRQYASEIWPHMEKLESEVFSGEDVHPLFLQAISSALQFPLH
Kind of assay: two-hybrid; ProQuest Two-Hybrid System (Invitrogen), yeast strain Mav203; pBD-CBP80 co-transformed with pAD-CBP20 or its S245 mutants; growth on SD/-Trp-Leu-His with 10mM 3AT indicates interaction.
With B1, the binding result is recorded as “binds”.

As for B2, the binding result was “binds”.

As for B3, the binding entry is recorded as “binds”.

With B4, the binding entry is listed as “binds”.
